According to patent publication US11191820B2, “Method for inducing early T memory response with short peptides anti-tumor vaccine” (OSE IMMUNOTHERAPEUTICS, priority 2015, dated 2021):
Some of these results come from one statement about several compounds together.

Legend:
central memory T cells [1] = test: Cultured IFN-γ ELISPOT after 10-day in vitro stimulation of PBMC, phase 1/2 colon cancer trial of OSE-2101; type: in vivo, human; details: for average response magnitudes: colon cancer patients; for patients responding to each of the analogs: week 9 or week 18
Procedure: (§1) Clinical study design. Both trials were designed as phase 1/2, open label, multi-center, single dose, multiple administration studies to evaluate the safety and immunogenicity of the OSE-2101 immunotherapy. Patients were treated with 1 ml OSE-2101 every 3 weeks for a total of six doses. Each dose was administered subcutaneously in the same vicinity in the deltoid or upper thigh region, or at a contralateral site if local side-effects were observed. The study duration for each completed patient was 18 weeks. Clinical responses or patient survival were not measured in either phase 1/2 studies.
(§2) Clinical sample processing. Blood or leukapheresis product was obtained from patients at the pre-treatment, the Week 9 and Week 18 time points, 3 weeks after the third and sixth dose of OSE-2101 respectively. Peripheral blood mononuclear cells (PBMC) were isolated from samples within 24 hours of collection using a FICOLL-PAQUE density gradient and cryopreserved in containers designed to ensure optimal freezing (Mr. Frosty, Nalgene). For use, cells were rapidly thawed at 37° C. then transferred to human AB serum-containing medium for work-up.
(§3) Measurement of central T memory cells responses and T effector memory cells. The CTL responses in 16 total patients (10 colon and six NSCLC) were monitored for CTL responses against each epitope and against the wild-type epitope of epitopes analogs. For each patient, the pre-treatment, Week 9 and Week 18 time points were batch-tested in the same experiment to allow pre- versus post-treatment response comparison in the same experiment. Central T memory cells responses were measured using an IFN-γ enzyme-linked immunospot (cultured ELISPOT) assay following in vitro stimulation of PBMC for 10 days with each vaccine epitope. Briefly, PBMC from each time point were stimulated on day 0 with 10 μg/ml of each epitope individually in replicate in 48-well culture plates (2×10^6 PBMC/well). All cultures were fed with rIL-2 (Endogen, Woburn, Mass.; 10 U/ml final concentration) on days 1, 4 and 7. Ten days after initiation of culture, cells were harvested and tested for activity against specific vaccine peptides and corresponding wild-type peptides of vaccine analogs in the T memory ELISPOT assay. Cells were tested in Millipore IP 96-well plates pre-coated with mouse anti-human IFN-γ antibody (Mabtech USA, Cincinnati, Ohio). Five×10^4 cells and 1.25×10^4 cells from each culture were plated in triplicate wells together with 10^5 irradiated autologous PBMC and 10 μg/ml peptide. As a control, CTL were also tested against an irrelevant HLA-A2.1-binding HBV peptide. After 20 hours incubation, T memory ELISPOT plates were developed by performing sequential incubations with biotinylated anti-human IFN-γ antibody (Mabtech USA), Avidin-Peroxidase Complex (APC, Vector Laboratories, Burlingame, Calif.), and 3-amino-9-ethyl carbazole (AEC) substrate (Sigma Aldrich, St. Louis, Mo.). Spot-forming cells (SFC) were enumerated using a computer-assisted image analysis system (Zeiss KS ELISPOT Reader, Carl Zeiss MicroImaging, Thornwood, N.J.). Data is reported as the net SFC per 5×10^4 cells after subtracting spots induced with the irrelevant HBV peptide.

central memory T cells [2] = test: Cultured IFN-γ ELISPOT after 10-day in vitro stimulation of PBMC, phase 1/2 NSCLC trial of OSE-2101; type: in vivo, human; details: for patients responding to each of the analogs: HLA-A*0201-typed NSCLC patients, week 9 or week 18; for average response magnitudes: NSCLC patients, Week 18
Procedure: as §1, §2
as §3, with “After 20 hours incubation, T memory ELISPOT plates were developed by performing sequential incubations with biotinylated anti-human IFN-γ antibody (Mabtech USA), Avidin-Peroxidase Complex (APC, Vector Laboratories, Burlingame, Calif.), and 3-amino-9-ethyl carbazole (AEC) substrate (Sigma Aldrich, St. Louis, Mo.).” left out, “Data is reported as the net SFC per 5×10^4 cells after subtracting spots induced with the irrelevant HBV peptide.” left out

Sequence	average response magnitudes (central memory T cells [1]; Week 9)	average response magnitudes (central memory T cells [1]; Week 18)	patients responding to each of the analogs (central memory T cells [1])	patients responding to each of the analogs (central memory T cells [2])	average response magnitudes (central memory T cells [2])
IMIGHLVGV [CEA.691H5 A]	70-180 SFC	90-315 SFC	60-80%	40-80%	60-138 SFC
KLBPVQLWV [p53.139L2B3 A]	70-180 SFC	90-315 SFC	60-80%	40-80%	60-138 SFC
